Test results from article PMC9706435.
Results are given in words; binding and its absence hold for the method and conditions named. In cells and extracts the contact can be indirect. A result given as binding can be weak or reduced; the word gives no strength.

By UniProt entry, the sequences of proteins in these tests, tags left out. Where a name states a change or a piece, a line headed by the entry shows the natural chain unless it says otherwise.
UniProt F4IHY7: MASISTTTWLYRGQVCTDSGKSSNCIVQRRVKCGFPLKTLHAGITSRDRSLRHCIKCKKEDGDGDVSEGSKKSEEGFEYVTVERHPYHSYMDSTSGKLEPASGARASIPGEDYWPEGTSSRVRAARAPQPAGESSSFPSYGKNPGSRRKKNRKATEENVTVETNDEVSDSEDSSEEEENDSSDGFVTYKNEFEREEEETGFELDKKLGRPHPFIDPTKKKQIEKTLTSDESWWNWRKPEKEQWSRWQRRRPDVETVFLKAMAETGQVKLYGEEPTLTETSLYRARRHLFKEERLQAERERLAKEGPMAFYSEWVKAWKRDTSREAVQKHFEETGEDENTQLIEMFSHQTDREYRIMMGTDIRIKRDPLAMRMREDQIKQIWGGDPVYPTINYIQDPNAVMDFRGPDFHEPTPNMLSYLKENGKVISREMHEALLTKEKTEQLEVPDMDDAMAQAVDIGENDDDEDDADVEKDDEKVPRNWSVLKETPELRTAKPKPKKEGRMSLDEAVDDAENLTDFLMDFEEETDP
UniProt Q9SR02: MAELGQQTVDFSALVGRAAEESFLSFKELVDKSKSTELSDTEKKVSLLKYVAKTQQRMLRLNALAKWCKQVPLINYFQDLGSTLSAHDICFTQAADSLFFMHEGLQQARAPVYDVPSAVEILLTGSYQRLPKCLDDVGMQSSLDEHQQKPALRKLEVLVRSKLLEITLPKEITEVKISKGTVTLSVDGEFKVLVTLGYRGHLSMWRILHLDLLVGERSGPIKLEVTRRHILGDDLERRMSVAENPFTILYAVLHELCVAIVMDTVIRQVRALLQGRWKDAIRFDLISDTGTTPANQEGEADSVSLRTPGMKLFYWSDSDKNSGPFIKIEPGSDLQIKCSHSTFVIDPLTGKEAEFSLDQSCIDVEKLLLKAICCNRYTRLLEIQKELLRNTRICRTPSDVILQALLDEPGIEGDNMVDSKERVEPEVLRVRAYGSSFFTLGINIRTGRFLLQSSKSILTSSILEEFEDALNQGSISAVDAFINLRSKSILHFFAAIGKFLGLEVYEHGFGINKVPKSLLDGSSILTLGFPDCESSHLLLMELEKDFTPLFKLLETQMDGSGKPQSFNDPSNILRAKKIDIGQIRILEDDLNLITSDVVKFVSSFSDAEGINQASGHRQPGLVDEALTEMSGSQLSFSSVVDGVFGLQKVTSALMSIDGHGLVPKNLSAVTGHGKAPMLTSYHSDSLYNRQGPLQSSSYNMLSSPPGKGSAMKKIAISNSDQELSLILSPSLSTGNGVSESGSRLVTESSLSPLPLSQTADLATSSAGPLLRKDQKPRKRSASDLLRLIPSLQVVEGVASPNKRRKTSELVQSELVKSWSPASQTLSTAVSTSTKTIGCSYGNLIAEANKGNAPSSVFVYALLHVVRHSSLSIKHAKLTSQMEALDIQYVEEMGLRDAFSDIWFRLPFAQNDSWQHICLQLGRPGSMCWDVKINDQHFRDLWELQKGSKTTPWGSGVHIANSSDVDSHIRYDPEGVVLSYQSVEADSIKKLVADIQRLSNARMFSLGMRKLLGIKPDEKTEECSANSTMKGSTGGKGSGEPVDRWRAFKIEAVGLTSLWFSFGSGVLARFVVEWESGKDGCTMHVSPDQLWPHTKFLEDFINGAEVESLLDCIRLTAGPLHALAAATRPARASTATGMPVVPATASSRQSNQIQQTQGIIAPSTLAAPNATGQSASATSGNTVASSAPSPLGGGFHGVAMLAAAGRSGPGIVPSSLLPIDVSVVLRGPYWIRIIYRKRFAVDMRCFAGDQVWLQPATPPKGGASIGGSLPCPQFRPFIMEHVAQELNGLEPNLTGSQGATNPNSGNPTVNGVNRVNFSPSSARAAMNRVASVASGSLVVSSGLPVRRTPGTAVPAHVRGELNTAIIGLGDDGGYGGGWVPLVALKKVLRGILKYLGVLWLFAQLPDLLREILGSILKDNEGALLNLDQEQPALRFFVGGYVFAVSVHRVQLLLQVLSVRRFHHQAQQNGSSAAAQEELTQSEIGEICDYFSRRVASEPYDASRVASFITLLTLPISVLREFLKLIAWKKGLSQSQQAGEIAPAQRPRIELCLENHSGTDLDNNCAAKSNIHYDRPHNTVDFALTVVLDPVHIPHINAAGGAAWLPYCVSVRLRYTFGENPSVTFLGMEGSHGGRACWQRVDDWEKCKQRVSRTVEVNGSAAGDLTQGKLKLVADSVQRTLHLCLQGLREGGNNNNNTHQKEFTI

Molecular target: GST-HMR (HEMERA) (Arabidopsis thaliana) (UniProt F4IHY7)
Test: pull-down; GST-PIF4 or GST-HMR bait immobilised on glutathione Sepharose 4B beads, incubated with in vitro translated HA-MED14 at 4°C for 2 h; washed four times with E buffer (50 mM Tris-HCl pH 7.5, 100 mM NaCl, 1 mM EDTA, 1 mM EGTA, 1% DMSO, 2 mM DTT, 0.1% Nonidet P-40); anti-HA immunoblot; only the target purified

binding: binds
Substance: HA-MED14 (from UniProt Q9SR02 1-1703)
